From paper PMC10864183
These are yes or no findings as the source states them, for the method shown. In cells and extracts the contact can be indirect. A result given as binding can be weak or reduced; the word gives no strength.

Amino acid sequences for entries named in this document (tags omitted). A change or cut given only in a name is not applied to a line headed by its entry.
UniProt A0AAF0Z240: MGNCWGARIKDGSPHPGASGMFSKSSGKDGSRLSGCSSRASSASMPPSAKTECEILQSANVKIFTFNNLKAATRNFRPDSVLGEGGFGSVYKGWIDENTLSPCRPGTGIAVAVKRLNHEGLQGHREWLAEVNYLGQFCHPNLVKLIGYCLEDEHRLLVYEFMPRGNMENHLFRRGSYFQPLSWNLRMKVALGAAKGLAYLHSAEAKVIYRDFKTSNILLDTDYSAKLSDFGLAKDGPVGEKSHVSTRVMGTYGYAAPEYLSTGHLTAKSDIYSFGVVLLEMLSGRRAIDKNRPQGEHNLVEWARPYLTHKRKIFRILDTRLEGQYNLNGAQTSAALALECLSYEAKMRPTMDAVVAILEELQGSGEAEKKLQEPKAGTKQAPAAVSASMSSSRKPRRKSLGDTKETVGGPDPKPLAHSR
UniProt A0AAF0Z3N3: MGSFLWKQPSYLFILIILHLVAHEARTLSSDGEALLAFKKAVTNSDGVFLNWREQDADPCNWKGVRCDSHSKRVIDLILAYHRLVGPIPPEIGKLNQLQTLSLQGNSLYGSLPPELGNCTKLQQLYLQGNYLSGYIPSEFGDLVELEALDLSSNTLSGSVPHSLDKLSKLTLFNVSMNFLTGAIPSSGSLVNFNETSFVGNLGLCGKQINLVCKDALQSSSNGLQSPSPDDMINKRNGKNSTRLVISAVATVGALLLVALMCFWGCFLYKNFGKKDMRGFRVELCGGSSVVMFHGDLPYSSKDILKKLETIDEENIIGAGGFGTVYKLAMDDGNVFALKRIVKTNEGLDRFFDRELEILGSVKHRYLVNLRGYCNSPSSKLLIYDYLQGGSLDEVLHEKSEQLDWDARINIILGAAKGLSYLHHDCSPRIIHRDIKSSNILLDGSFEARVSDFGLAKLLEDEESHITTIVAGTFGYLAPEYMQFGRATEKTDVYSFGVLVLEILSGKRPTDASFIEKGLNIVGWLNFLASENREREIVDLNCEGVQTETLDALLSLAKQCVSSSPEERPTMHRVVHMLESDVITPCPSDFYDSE

What was measured:
Assay in all cases: split reporter; split-luciferase complementation (SLC); cLUC and nLUC fusions co-infiltrated into N. benthamiana leaves, 1 mM luciferin sprayed two days after, luminescence imaged
[1] = target: ZmWAKL^Q-nLUC (maize (Zea mays), inbred line Q11)
[2] = target: ZmWAKL^Y-nLUC (maize (Zea mays), inbred line Y32)
[3] = target: ZmWIK-nLUC (maize (Zea mays))
[4] = target: cLUC-ZmWAKL^Q (maize (Zea mays), inbred line Q11)

Substance	binding [1]	binding [2]	binding [3]	binding [4]
cLUC-ZmBLK1 (from UniProt A0AAF0Z240) (enzyme)	binds	binds	binds	
ZmWIK-nLUC (from UniProt A0AAF0Z3N3) (receptor)				binds
